One molecule from paper PMC9629720, “Lipids mediate supramolecular outer membrane protein assembly in bacteria” (Science Advances, 2022) can be followed below.

Results are given in words; binding and its absence hold for the method and conditions named.

The target of this assay is T1, OmpF, wild type, purified (E. coli), P02931.
T1 chain: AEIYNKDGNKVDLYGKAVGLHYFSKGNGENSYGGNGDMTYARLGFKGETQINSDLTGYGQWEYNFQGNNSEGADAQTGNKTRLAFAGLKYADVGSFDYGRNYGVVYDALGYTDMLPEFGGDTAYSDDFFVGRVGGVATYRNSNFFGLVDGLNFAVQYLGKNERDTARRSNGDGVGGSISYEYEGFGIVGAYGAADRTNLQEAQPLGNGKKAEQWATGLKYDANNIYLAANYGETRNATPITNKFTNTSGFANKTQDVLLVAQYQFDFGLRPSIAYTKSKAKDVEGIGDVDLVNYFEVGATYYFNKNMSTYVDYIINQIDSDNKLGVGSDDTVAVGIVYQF
Kind of assay: native gel or EMSA; blue native PAGE, 4-16% bis-tris gel, 4°C; purified proteins alone or mixed, 10 to 20 μM (BtuB added at 15 μM) in 10 mM tris-HCl pH 8.0, 5 mM EDTA, 1% β-OG; for OmpF alone: trimer with trimer; both purified. As to conditions: remark: other sources report otherwise.

B1: BtuB, wild type, purified (with LPS bound noncovalently), P06129 21-614 (protein)
chain: QDTSPDTLVVTANRFEQPRSTVLAPTTVVTRQDIDRWQSTSVNDVLRRLPGVDITQNGGSGQLSSIFIRGTNASHVLVLIDGVRLNLAGVSGSADLSQFPIALVQRVEYIRGPRSAVYGSDAIGGVVNIITTRDEPGTEISAGWGSNSYQNYDVSTQQQLGDKTRVTLLGDYAHTHGYDVVAYGNTGTQAQTDNDGFLSKTLYGALEHNFTDAWSGFVRGYGYDNRTNYDAYYSPGSPLLDTRKLYSQSWDAGLRYNGELIKSQLITSYSHSKDYNYDPHYGRYDSSATLDEMKQYTVQWANNVIVGHGSIGAGVDWQKQTTTPGTGYVEDGYDQRNTGIYLTGLQQVGDFTFEGAARSDDNSQFGRHGTWQTSAGWEFIEGYRFIASYGTSYKAPNLGQLYGFYGNPNLDPEKSKQWEGAFEGLTAGVNWRISGYRNDVSDLIDYDDHTLKYYNEGKARIKGVEATANFDTGPLTHTVSYDYVDARNAITDTPLLRRAKQQVKYQLDWQLYDFDWGITYQYLGTRYDKDYSSYPYQTVKMGGVSLWDLAVAYPVTSHLTVRGKIANLFDKDYETVYGYQTAGREYTLSGSYTF
In the case of B1, the binding entry is “no binding (tested: 20 μM)”.
